Test [1] deals with T1, MORC1 (yeast two-hybrid fusion) (Arabidopsis thaliana) (UniProt Q84WV6).
T1 sequence: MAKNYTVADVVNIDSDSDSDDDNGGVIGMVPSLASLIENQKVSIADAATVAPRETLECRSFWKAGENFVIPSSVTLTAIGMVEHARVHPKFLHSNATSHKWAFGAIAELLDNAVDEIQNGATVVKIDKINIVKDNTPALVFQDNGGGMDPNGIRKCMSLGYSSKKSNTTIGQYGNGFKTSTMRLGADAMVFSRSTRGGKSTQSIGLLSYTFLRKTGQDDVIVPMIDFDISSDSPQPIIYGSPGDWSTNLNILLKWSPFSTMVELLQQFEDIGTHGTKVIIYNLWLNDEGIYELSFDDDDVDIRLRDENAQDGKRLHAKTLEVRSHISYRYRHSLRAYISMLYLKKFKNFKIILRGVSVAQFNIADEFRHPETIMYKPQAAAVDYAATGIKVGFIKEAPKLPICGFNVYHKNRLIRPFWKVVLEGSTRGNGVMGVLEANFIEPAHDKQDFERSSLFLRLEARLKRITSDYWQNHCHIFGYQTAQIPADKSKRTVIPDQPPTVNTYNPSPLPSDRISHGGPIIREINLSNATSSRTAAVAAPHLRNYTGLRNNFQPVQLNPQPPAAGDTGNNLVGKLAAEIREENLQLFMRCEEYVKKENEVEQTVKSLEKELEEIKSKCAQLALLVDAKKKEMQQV
Briefly: two-hybrid; GAL4-AD (pGADT7) and GAL4-BD (pGBKT7) fusions in yeast strain PJ694a; growth on SD-TLH, 20 mM 3-AT.

The target of test [2] is T2, MORC6 (yeast two-hybrid fusion) (Arabidopsis thaliana) (UniProt Q56Y74).
T2 sequence: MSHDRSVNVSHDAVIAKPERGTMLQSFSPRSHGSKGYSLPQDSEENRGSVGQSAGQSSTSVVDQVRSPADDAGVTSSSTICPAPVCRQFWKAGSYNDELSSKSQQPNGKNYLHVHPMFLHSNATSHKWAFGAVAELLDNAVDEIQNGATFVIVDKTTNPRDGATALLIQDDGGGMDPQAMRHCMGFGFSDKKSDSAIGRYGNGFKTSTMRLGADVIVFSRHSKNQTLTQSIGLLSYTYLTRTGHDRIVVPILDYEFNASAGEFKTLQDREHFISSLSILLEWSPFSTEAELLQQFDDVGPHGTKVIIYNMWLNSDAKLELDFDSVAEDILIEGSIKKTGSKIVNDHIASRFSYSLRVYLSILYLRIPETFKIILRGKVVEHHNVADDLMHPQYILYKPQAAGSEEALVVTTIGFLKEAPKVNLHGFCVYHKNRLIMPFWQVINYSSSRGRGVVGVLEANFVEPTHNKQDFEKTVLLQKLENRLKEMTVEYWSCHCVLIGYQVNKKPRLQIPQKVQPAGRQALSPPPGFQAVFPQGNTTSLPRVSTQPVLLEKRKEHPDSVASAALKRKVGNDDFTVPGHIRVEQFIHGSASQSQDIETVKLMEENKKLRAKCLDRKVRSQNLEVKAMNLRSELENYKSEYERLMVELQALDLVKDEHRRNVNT
Described as above.

These are yes or no findings as the source states them, for the method shown. Tags and fused reporters may be left off the sequences shown.

For the substance “SUVH2-c (truncated SUVH2 without its C-terminal SET domain, yeast two-hybrid fusion) (Arabidopsis thaliana) (domain or fragment)”, the binding result in test [1] was “no binding”.
“SUVH9-c (truncated SUVH9 without its SET domain, yeast two-hybrid fusion) (Arabidopsis thaliana) (domain or fragment)”: the binding entry in test [1] and in test [2] was “no binding” throughout.

For the origin of these results see PMC3898904.
